Assay results: article PMC4270787 (PLoS ONE, 2014)
These are yes or no findings as the source states them, for the method shown. Some entries that bind do so weakly or less than the wild type.

By UniProt entry, the sequences of proteins in these tests, tags left out. Where a name states a change or a piece, a line headed by the entry shows the natural chain unless it says otherwise. Residues count along the entry.
UniProt P36544, residues 23-502: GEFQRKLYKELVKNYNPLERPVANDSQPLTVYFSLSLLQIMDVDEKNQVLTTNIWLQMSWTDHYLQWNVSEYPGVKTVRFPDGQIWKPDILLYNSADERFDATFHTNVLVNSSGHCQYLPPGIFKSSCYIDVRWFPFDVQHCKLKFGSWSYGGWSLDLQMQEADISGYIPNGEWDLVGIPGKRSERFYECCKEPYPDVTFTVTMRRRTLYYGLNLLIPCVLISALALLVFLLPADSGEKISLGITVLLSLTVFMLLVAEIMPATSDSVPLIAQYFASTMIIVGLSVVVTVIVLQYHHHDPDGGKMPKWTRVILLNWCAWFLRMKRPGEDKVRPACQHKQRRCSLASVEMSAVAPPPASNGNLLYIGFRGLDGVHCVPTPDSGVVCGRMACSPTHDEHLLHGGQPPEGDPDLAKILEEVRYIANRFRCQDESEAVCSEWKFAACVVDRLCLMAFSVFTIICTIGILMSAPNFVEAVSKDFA
UniProt P58154, residues 20-229: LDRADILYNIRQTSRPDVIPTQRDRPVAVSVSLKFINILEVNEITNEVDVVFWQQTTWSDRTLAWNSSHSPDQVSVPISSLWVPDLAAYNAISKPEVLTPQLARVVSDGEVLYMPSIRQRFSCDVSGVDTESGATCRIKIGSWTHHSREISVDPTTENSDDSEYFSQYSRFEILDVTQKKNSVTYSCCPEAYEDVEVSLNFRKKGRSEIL
UniProt P02710: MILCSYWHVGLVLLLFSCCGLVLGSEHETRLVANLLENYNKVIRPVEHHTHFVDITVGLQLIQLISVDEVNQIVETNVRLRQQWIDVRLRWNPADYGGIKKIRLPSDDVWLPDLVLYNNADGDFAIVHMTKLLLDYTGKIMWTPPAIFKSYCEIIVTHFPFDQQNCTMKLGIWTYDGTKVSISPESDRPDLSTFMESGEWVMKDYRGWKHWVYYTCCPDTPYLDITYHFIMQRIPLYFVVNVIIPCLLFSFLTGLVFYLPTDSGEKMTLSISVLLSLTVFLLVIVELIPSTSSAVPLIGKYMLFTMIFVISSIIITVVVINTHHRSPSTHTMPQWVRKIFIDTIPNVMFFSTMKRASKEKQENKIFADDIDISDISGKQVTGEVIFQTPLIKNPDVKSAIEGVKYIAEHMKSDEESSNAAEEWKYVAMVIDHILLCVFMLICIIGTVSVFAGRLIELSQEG
UniProt P60615, residues 22-95: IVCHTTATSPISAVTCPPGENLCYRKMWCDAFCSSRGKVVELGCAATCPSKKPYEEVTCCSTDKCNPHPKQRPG

Assays:
[1] = molecular target: human neuronal α7 nicotinic acetylcholine receptor (human) (UniProt P36544); experiment: radioligand binding; only the binder purified
[2] = molecular target: acetylcholine-binding protein from L. stagnalis (L. stagnalis) (UniProt P58154); experiment: radioligand binding; both purified
[3] = molecular target: T. californica muscle-type nicotinic acetylcholine receptor (T. californica) (UniProt P02710); experiment: radioligand binding; only the binder purified

Row | Molecule | binding [1] | binding [2] | binding [3]
1 | Mono-iodinated (3-[125I]iodotyrosyl54)-α-bungarotoxin (from UniProt P60615 22-95) (ligand) | binds |  | 
2 | PLA2 Vur-PL2 from V. ursinii venom (enzyme) NLYQFGKMIRYKTGKSALLSYSDYGCYCGWGGQGKPKDATDRCCFVHDCCYGRVNGCDPKLTIYSYSFENGDIVCGGDDSCKRAVCECDRVAAICFGENLNTYDKKYKNYPSSQCTETEQC |  | no binding (tested: >30 µM) | no binding (tested: >100 µM)
